# Experimental data as given in the supplement of paper PMC8256030.
# This is one part of the list. Repeats in this data set agree poorly, so a single value says little.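 HEK293T cells were given each compound shortly before transfection with a reporter in which red mCherry is followed by the SARS-CoV-2 frameshift element and then GFP in the −1 frame, so GFP appears only after frameshifting.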
# Experiments:
# [1] = tested on: SARS-CoV-2 -1 PRF reporter mCherry-FSE-GFP(-1); test: mCherry (red) intensity as percent of control; higher = higher upstream reporter expression; conditions: 10 µM; 24 h; HEK293T
# [2] = tested on: SARS-CoV-2 -1 PRF reporter mCherry-FSE-GFP(-1); test: percent effect, decrease of GFP/mCherry ratio (-1 PRF reporter) relative to controls; higher = stronger frameshift inhibition; conditions: 10 µM; 24 h; HEK293T
Structure (SMILES),mCherry [1] [%],percent effect [2] [%]
O=C1CN(/N=C/c2ccc(-c3ccc([N+](=O)[O-])cc3)o2)C(=O)N1 [dantrolene],101,-1.7
CCN(CC)CCC(=O)N1c2ccccc2Sc2ccc(C(F)(F)F)cc21 [fluacizine],97.4,-0.918
O=C1NCN(c2ccccc2)C12CCN(CCCC(c1ccc(F)cc1)c1ccc(F)cc1)CC2 [fluspirilene],104,-2.34
COC(=O)/C=C/C(=O)OC,155,-1.89
CO[C@H]1C[C@H](O[C@@H]2/C(C)=C/C[C@@H]3C[C@@H](C[C@]4(CC[C@H](C)[C@@H](C5CCCCC5)O4)O3)OC(=O)[C@@H]3C=C(C)/C(=N/O)[C@H]4OC/C(=C\C=C\[C@@H]2C)[C@]43O)O[C@@H](C)[C@@H]1O [selamectin],48.3,-6.82
Nc1nc(/C(=C/CC(=O)O)C(=O)N[C@@H]2C(=O)N3C(C(=O)O)=CCS[C@H]23)cs1 [ceftibuten],116,-3.75
CCC(C)C(C(=O)OC1CC[N+](C)(C)CC1)c1ccccc1 (stereo not drawn) [pentapiperium metilsulfate],85.5,-9.02
CCc1cccc2c3c([nH]c12)C(CC)(CC(=O)O)OCC3 (stereo not drawn) [etodolac],125,-7
CCOC(=O)N1c2ccc(C(F)(F)F)cc2[C@@H](N(Cc2cc(C(F)(F)F)cc(C(F)(F)F)c2)C(=O)OC)C[C@H]1CC [torcetrapib],84.8,-1.4
CC1CCN(CCCC(=O)c2ccc(F)cc2)CC1 [melperone],120,-6.88
CC1=C(C(=O)O)N2C(=O)[C@@H](NC(=O)[C@H](N)C3=CCC=CC3)[C@H]2SC1 [Velosef],113,-3.07
O=C1CC(c2cccc(Br)c2)C(=O)N1 (stereo not drawn) [brosuximide],103,-4.98
C[n+]1ccccc1/C=N/O,93.5,-2.98
CC(C)(O/N=C(\C(=O)N[C@@H]1C(=O)N2C(C(=O)[O-])=C(C[n+]3ccccc3)CS[C@H]12)c1csc(N)n1)C(=O)O [Fortaz],105,-3.15
C[C@H]1C[C@H]2[C@@H]3C[C@H](F)C4=CC(=O)C=C[C@]4(C)[C@@]3(F)[C@@H](O)C[C@]2(C)[C@@]1(O)C(=O)CO [diflorasone],99.9,-0.736
CCCCCNC(=N)N/N=C/c1c[nH]c2ccc(OC)cc12,104,-0.388
C=C1/C(=C\C=C2/CCC[C@]3(C)[C@@H]([C@H](C)/C=C/C=C/C(O)(CC)CC)CC[C@@H]23)C[C@@H](O)C[C@@H]1O [seocalcitol],85.2,-5.75
CN(C)CCOC(c1ccc(Cl)cc1)c1ccccn1 (stereo not drawn) [carbinoxamine],102,-0.211
COc1ccc2c(O[C@@H]3C[C@H]4C(=O)N[C@]5(C(=O)NS(=O)(=O)C6(C)CC6)C[C@H]5/C=C\CCCCC[C@H](NC(=O)c5ccn(C)n5)C(=O)N4C3)cc(OC(C)C)nc2c1C,47.4,-0.139

# Reformatted: results already given.
Structure (SMILES)	mCherry [1] [%]	percent effect [2] [%]
CC1CCN(CCCC(=O)c2ccc(F)cc2)CC1 [melperone]	120	-6.88
CC1=C(C(=O)O)N2C(=O)[C@@H](NC(=O)[C@H](N)C3=CCC=CC3)[C@H]2SC1 [Velosef]	113	-3.07
O=C1CC(c2cccc(Br)c2)C(=O)N1 (stereo not drawn) [brosuximide]	103	-4.98
C[n+]1ccccc1/C=N/O	93.5	-2.98
